Test results published in patent US8946124B2, “Substituted 3-(biphenyl-3-yl)-8,8-difluoro-4-hydroxy-1-azaspiro[4.5]dec-3-en-2-ones for therapy and halogen-substituted spirocyclic ketoenols” (Bayer Intellectual Property GmbH, priority 2011, dated 2015).
Some of these results come from one statement about several compounds together.

Experiments:
Assay in all cases: Herbicidal post-emergence action
Assay type in all cases: in vivo
Settings in all cases: 80 g/ha, about 3 weeks
Alopecurus myosuroides = system: Alopecurus myosuroides
Echinocloa crus-galli = system: Echinocloa crus-galli
Lolium multiflorum = system: Lolium multiflorum
Setaria viridis = system: Setaria viridis

Measured: herbicidal activity in percent

CCc1cc(C)cc(C)c1C1=C(O)C2(CCC(F)(F)CC2)NC1=O [Example I-1-a-11]
90-100%: all assays above
